# Several values for one entry are separate records, joined by “and”; a condition that tells them apart may be missing. Identical values can stand only once. The list shows a part of the results. Single values are uncertain, as repeats are few or missing.
# System: Geomyces destructans
# Experiment: growth inhibition relative to DMSO control; higher = stronger growth inhibition
# Conditions: 10 µM; 15 °C; incubation time 10 days
row,Compound,growth inhibition
1,CC(=O)OC1CN2CCC1CC2 (configuration not stated),6.42%
2,CC(CCc1ccccc1)NC(C)C(O)c1ccc(O)cc1 (configuration not stated),-19.2%
3,COC(=O)[C@]1(C)CC[C@]2(C)CC[C@]3(C)C4=CCc5c(cc(O)c(O)c5C)[C@]4(C)CC[C@@]3(C)[C@@H]2C1,-5.81%
4,COP(=S)(OC)Oc1ccc([N+](=O)[O-])cc1,2.16%
5,N.N.[Cl][Pt][Cl],4.86%
6,COc1cc(OC)c2c(c1)OC(c1ccc(OC)c(OC)c1)C(O)C2 (configuration not stated),0.865%
7,CCCN1C[C@H](CSC)C[C@@H]2c3cccc4[nH]cc(c34)C[C@H]21,-15.7%
8,CC(C)N1C(=O)c2ccccc2NS1(=O)=O,-11.9%
9,c1ccc2c(c1)cc1ccc3cccc4ccc2c1c34,8.51%
10,CC[C@@H](C)C(=O)O[C@H]1[C@H](O)[C@H]2[C@@H](CN3C[C@@H](C)CC[C@H]3[C@@]2(C)O)[C@@H]2C[C@]34O[C@]5(O)[C@@H](OC(=O)[C@](C)(O)[C@@H](C)O)CC[C@@]3(C)[C@@H]5[C@@H](OC(C)=O)[C@@H](OC(C)=O)[C@H]4[C@@]21O (stereo in doubt),-10.2%
11,CC1=C(O)C(=O)C=C2C1=CC=C1[C@@]2(C)CC[C@@]2(C)[C@@H]3C[C@](C)(C(=O)O)CC[C@]3(C)CC[C@]12C,-26.3%
12,N#C/C(=C\c1ccc(O)cc1)C(=O)O [alpha-CYANO-4-HYDROXYCINNAMIC ACID],-17.2%
13,CC(=O)Oc1ccc(/C=C/c2cc(OC(C)=O)cc(OC(C)=O)c2)cc1,-4.62%
14,Oc1cccc2cccnc12,-14.9%
15,COC(=O)[C@]1(C)CC[C@]2(C)CC[C@]3(C)C4=CC=C5C(=CC(=O)C(O)=C5C)[C@]4(C)CC[C@@]3(C)[C@@H]2C1,-22.6%
16,Cc1ncc(CNC(=O)N(CCCl)N=O)c(N)n1,-35%
17,CN1CCCCC1c1ccc(-c2cccnc2)nc1 (configuration not stated),3.56%
18,CCCCCCCCCc1ccc(O)cc1,10.2%
19,CNc1ccc(C(=O)CC(O)CCC(C)C2OC(=O)CC(O)CC(=O)CC(O)CC(O)CC(O)CC(O)CC3(O)CC(O)C(C(=O)OC)C(CC(O[C@@H]4O[C@H](C)[C@@H](O)[C@H](N)[C@@H]4O)/C=C/C=C/C=C/C=C/C=C/C=C/C=C/C2C)O3)cc1.COC(=O)C1C(O)CC2(O)CC(O)CC(O)CC(O)CC(O)CC(=O)CC(O)CC(=O)OC(C(C)CCC(O)CC(=O)c3ccc(N)cc3)C(C)/C=C/C=C/C=C/C=C/C=C/C=C/C=C/C(O[C@@H]3O[C@H](C)[C@@H](O)[C@H](N)[C@@H]3O)CC1O2 (some centres not stated),-29%
20,COc1ccc2[nH]cc(CCN)c2c1,-1.93%
21,CC(=O)O[C@H]1C[C@H](O[C@H]2[C@@H](O)C[C@H](O[C@H]3[C@@H](O)C[C@H](O[C@H]4CC[C@@]5(C)[C@H](CC[C@@H]6[C@@H]5C[C@@H](O)[C@]5(C)[C@@H](C7=CC(=O)OC7)CC[C@]65O)C4)O[C@@H]3C)O[C@@H]2C)O[C@H](C)[C@H]1O[C@@H]1O[C@H](CO)[C@@H](O)[C@H](O)[C@H]1O,-11.7%
22,O=C1C=C2C(=CCOC2O)O1 (configuration not stated),-20.9%
23,COc1ccc(CCN2CCC(Nc3nc4ccccc4n3Cc3ccc(F)cc3)CC2)cc1,-12.1%
24,CC1=C2[C@H]3OC(=O)[C@@H](C)[C@@H]3CC[C@@]2(C)C=CC1=O,-3.62%
25,OCC(O)Cc1ccc2c(c1)OCO2 (configuration not stated),-26.1%
26,CCC(N)C(O)c1ccc(O)c(O)c1 (configuration not stated),-9.86%

row,Compound,growth inhibition
1,COC1C(O)C(O[C@H]2CC[C@]3(C=O)C4C(CC[C@]3(O)C2)[C@@]2(O)CC[C@H](C3=CC(=O)OC3)[C@@]2(C)C[C@H]4OC(C)=O)OC(C)C1OC(C)=O (some centres not stated),-15.2%
2,CC1(C)C(C=C(Cl)Cl)C1C(=O)OC(C#N)c1cccc(Oc2ccccc2)c1 (configuration not stated),72.6%
3,O=C1CCCN1CC#CCN1CCCC1,-9.77% and -9.53%
4,CO[C@@H]1C[C@@H](C[C@H]2CC[C@H](C)[C@H]([C@@H](C)C(=O)O)O2)O[C@]2(O[C@](C)([C@H]3CC[C@@](C)([C@@H]4O[C@@H]([C@H]5O[C@@](O)(CO)[C@H](C)C[C@@H]5C)C[C@@H]4C)O3)C[C@H]2C)[C@@H]1C,-7.53%
5,COc1ccc(Cc2nccc3cc(OC)c(OC)cc23)cc1OC,-25.4%
6,COc1cc2c(c(OC)c1OC)-c1ccc(=O)c(O)cc1[C@@H](NC(C)=O)CC2,-9.28%
7,CNC1=Nc2ccc(Cl)cc2C(c2ccccc2)=[N+]([O-])C1,-6.42%
8,CCC1(CC)C(=O)C=CNC1=O,-5.2%
9,COc1cc2c(cc1OC)[C@H](C)NCC2,-7.21%
10,CCOCN(C(=O)CCl)c1c(C)cccc1CC,7.95%
11,COP(=O)(OC)OC(Br)C(Cl)(Cl)Br (configuration not stated),-2.41%
12,COc1cc2c(cc1OC)[C@@]13CCN4CC5=CCO[C@H]6CC(=O)N2[C@H]1[C@H]6[C@H]5C[C@H]43,-6.41%
13,CC(C)(C)NCC(O)c1cc(Cl)c(N)c(Cl)c1 (configuration not stated),-8.03%
14,C=C(C)[C@H]1Cc2c(ccc3c2O[C@@H]2COc4cc(OC)c(OC)cc4[C@@H]2C3=O)O1,3.56%
15,COC(=O)C1=CCCN(C)C1,-34.1%
16,NCC(CC(=O)O)c1ccc(Cl)s1 (configuration not stated),-40.2%
17,CCC1(c2ccc(N)cc2)CCC(=O)NC1=O (configuration not stated),-5.92%
18,C[C@@H](N)[C@@H](O)c1ccccc1,-18.3% and -14.8%
19,COc1cc2c(cc1OC)[C@@H]1C(=O)c3ccc(O)c(CC=C(C)C)c3O[C@@H]1CO2,-4.6%
20,NCCc1ccc(O)cc1,-40.6%
21,C[C@]12CC[C@H](O)C[C@@H]1CC[C@@H]1[C@@H]2CC[C@]2(C)C(=O)CC[C@@H]12,-0.395%
22,C[N+]1(C)[C@@H]2C[C@@H](OC(=O)[C@H](CO)c3ccccc3)C[C@H]1[C@@H]1O[C@@H]12,8.34%
23,CCn1cc(C(=O)O)c(=O)c2cc3c(cc21)OCO3,-4.73%
24,CO[C@H]1C[C@H](O[C@H]2CC[C@]3(C=O)[C@H]4CC[C@]5(C)[C@@H](C6=CC(=O)OC6)CC[C@]5(O)[C@@H]4CC[C@]3(O)C2)O[C@H](C)[C@H]1O,-10.4%
25,CC1(C)C2C[C@@H](O)[C@]3(C)C(CC[C@@]4(C)[C@H](c5ccoc5)OC(=O)[C@H]5O[C@]543)[C@@]2(C)[C@@H](O)C[C@H]1O (some centres not stated),-12.6%
26,C[C@@H]1O[C@@H](O[C@H]2C[C@@H](O)[C@]3(CO)[C@H]4[C@H](O)C[C@]5(C)[C@@H](C6=CC(=O)OC6)CC[C@]5(O)[C@@H]4CC[C@]3(O)C2)[C@H](O)[C@H](O)[C@H]1O,-9.73%

# Source: the supplement of paper PMC3047530
